# Source: article PMC7819943, “Rice protein-binding microarrays: a tool to detect cis-acting elements near promoter regions in rice”
# Chains of the proteins cited; added tags and fusions are not shown.
# UniProt Q0JBA9, entry or part of it: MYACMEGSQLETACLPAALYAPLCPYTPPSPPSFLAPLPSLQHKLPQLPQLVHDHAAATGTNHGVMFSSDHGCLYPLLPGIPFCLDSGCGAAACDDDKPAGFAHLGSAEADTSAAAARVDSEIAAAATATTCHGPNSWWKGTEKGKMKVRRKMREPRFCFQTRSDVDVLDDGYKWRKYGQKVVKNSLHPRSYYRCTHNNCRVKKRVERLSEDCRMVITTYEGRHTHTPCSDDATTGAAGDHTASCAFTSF
# This is one part of the list.
# Biological target: OsWRKY34 (Oryza sativa, UniProt Q0JBA9 1-250)
# Assay: protein-binding microarray (RPBM); PBS, 2% BSA, 51.3 ng/ul salmon testes DNA, 50 uM zinc acetate, 200 nM TF, 25 C, 1 h; high values mean tight binding
# Conditions: protein: recombinant; tags: N-terminal polyhistidine and DsRed monomer fusion (pET32a); label: CyDye5-dUTP incorporated in the synthesized complementary strand; 3' TTTTT single-stranded linker to array surface; dsDNA, one strand shown
# In short: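 The binding signal for each feature is its fluorescence intensity in arbitrary units. An Axon 4000B scanner was used to read a custom Agilent array that had been made double-stranded with Cy5-dUTP primer extension, blocked with 2% BSA, incubated at 25 °C for 1 h with 200 nM protein in PBS, 2% BSA, salmon testes DNA and 50 µM zinc acetate, and washed. The protein was an N-terminal polyhistidine–DsRed transcription factor fusion from E. coli BL21-CodonPlus, purified on Ni–NTA.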
row,Sequence,binding signal
1,TTTGTACCCTTAGTCATCGTGTTCATCTGAGTTGTTTCTGCGGAGTCACCTAGTGCAG,8340 fluorescence intensity (a.u.)
2,ATCCCAGCAACTTGTATCAATTAAATGCTTTGCTTAGTCTCGGAGTCACCTAGTGCAG,8580 fluorescence intensity (a.u.)
3,GTTTTTACCTCCATAATGGAACTACTTTTAATGTCATGACCGGAGTCACCTAGTGCAG,9320 fluorescence intensity (a.u.)
4,CTCTCCCATTCTGGCCCAACTATCCCGCTCCGGCCTAATACGGAGTCACCTAGTGCAG,8430 fluorescence intensity (a.u.)
5,AGTAATGATTTCTTCTTTTAAGATGCTCTTTGCCATGCTACGGAGTCACCTAGTGCAG,8240 fluorescence intensity (a.u.)
6,CAGCCAGTACACACCCCACAATGCCCATCTCCTATATATACGGAGTCACCTAGTGCAG,8050 fluorescence intensity (a.u.)
7,CAATTTAATCAAGTGATATTTCACATGTTGTTTTTCTTCACGGAGTCACCTAGTGCAG,8870 fluorescence intensity (a.u.)
8,ACTTTTAACTAATGATCATAGTAACGTTAATTGTTATGCACGGAGTCACCTAGTGCAG,8270 fluorescence intensity (a.u.)
9,CCACCTCCACCGTCTCGTCTCCTCCCGCCAGGCCAAAAACCGGAGTCACCTAGTGCAG,8810 fluorescence intensity (a.u.)
10,GTTGCAACTTGTATAATTTAAATTTGACCTTGCATTTTGTCGGAGTCACCTAGTGCAG,9040 fluorescence intensity (a.u.)
11,AATATCAAACCTACTCATAACTTTTTGCAACAGTCTCATTCGGAGTCACCTAGTGCAG,8440 fluorescence intensity (a.u.)
12,GCGTGTGTTCTTGTGCTGGATTGTGGAGTTCTTGATCCCTCGGAGTCACCTAGTGCAG,10000 fluorescence intensity (a.u.)
13,ACGCTTACAACATGCGCATACACGCACACCCAATCCTATGCGGAGTCACCTAGTGCAG,11000 fluorescence intensity (a.u.)
14,CGCCGCCTTCAGCCACCGCCGCCCCAGCGCCGCGCGCCCCCGGAGTCACCTAGTGCAG,8440 fluorescence intensity (a.u.)
15,GCCGGCCGGCCTTCTTTTGCATTTCGTTCATACTTCTTTACGGAGTCACCTAGTGCAG,12000 fluorescence intensity (a.u.)
16,TGGCTGCCGGACTTGGGAGGGACACTGGGTTGGTTGTGGGCGGAGTCACCTAGTGCAG,9440 fluorescence intensity (a.u.)
17,CCGTTTCCTGTCATCTTCTCTGACGAACCTGCAGCGGTGACGGAGTCACCTAGTGCAG,8190 fluorescence intensity (a.u.)
18,CTTCGGCAAATCCATATTCCACACCACATTGCTGCCATATCGGAGTCACCTAGTGCAG,13700 fluorescence intensity (a.u.)
19,TTGTGCTGCTCGTGTTTGCGTTCATTCAGGTCAAAAGATGCGGAGTCACCTAGTGCAG,8090 fluorescence intensity (a.u.)
20,TTTGATCCTGTTATCAATTTGCATACATTTCATTATTTTACGGAGTCACCTAGTGCAG,9700 fluorescence intensity (a.u.)
21,TATAATTAAGTCCCGTTTTGATTGCTATTTTGGTTGGTTTCGGAGTCACCTAGTGCAG,10100 fluorescence intensity (a.u.)
22,AATTGAATCAGACTTTCTTTTTTTGTTTTAATGTTTTTTCCGGAGTCACCTAGTGCAG,9050 fluorescence intensity (a.u.)
23,TCGCACGCCGCGACGCCTCTGCTGAACATTTCGCTCTCTTCGGAGTCACCTAGTGCAG,9430 fluorescence intensity (a.u.)

# Exported with tabs: part of the list above
row	Sequence	binding signal
11	AATATCAAACCTACTCATAACTTTTTGCAACAGTCTCATTCGGAGTCACCTAGTGCAG	8440 fluorescence intensity (a.u.)
17	CCGTTTCCTGTCATCTTCTCTGACGAACCTGCAGCGGTGACGGAGTCACCTAGTGCAG	8190 fluorescence intensity (a.u.)
